Taken from: PubChem BioAssay AID1259254 (NCATS, 2017)
Assay: 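Gene knock-downs that lead to re-replication, shown by excess G2 DNA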 (primary screen). Cells: human HCT116 colorectal cancer cells. Reagents: single siRNA against human genes. Duration: 3 days. Detection: 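Nuclei stained with Hoechst and imaged; cell-cycle phase assigned by DNA content; G2 share scaled per plate, non-targeting siRNA 0%, GMNN siRNA 100%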. Scale: G2 robust z-score: higher = more G2 cells, more excess DNA replication. Hit rule: 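Active siRNAs have a G2 robust z of 5 or more median absolute deviations over the median, which in these data means about 38% or higher of GMNN control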.
The whole screen tested about 59,000 reagents; below is a random part of them. About 1,550 of all reagents (2.6%) count as active. 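G2 share is only a proxy for re-replication; each gene was hit by three separate siRNAs, and active genes were retested.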 A number with no mark means an inactive call. Reagents against one gene are numbered here. Further read-outs or replicates are left out here. The record does not give: the amount of reagent.

Which result is listed for TERB1 #1?
G2 robust z-score: -0.511

Which result is listed for TERB1 #2?
G2 robust z-score: -0.441

For TERB1 #3, how do the results read?
G2 robust z-score: 0.718

How did the screen score GLUD2 #1?
G2 robust z-score: -0.84

What is on record for GLUD2 #2?
G2 robust z-score: 1.02

With GLUD2 #3, what does the deposit list?
G2 robust z-score: -0.508

With C1QTNF7 #1, how do the results read?
G2 robust z-score: 3.5

What did the screen give for C1QTNF7 #2?
G2 robust z-score: 3.13

For C1QTNF7 #3, how do the results read?
G2 robust z-score: -0.246

For PXMP4 #1, how do the results read?
G2 robust z-score: -0.542

Which result is listed for PXMP4 #2?
G2 robust z-score: 0.149

For PXMP4 #3, how do the results read?
G2 robust z-score: -0.0306

Which result is listed for TGM3 #1?
G2 robust z-score: -0.886

What is on record for TGM3 #2?
G2 robust z-score: -0.679

How did the screen score TGM3 #3?
G2 robust z-score: 0.69

2 entries already listed, ordered by “G2 robust z-score”, ascending.
GLUD2 #3 — G2 robust z-score = -0.508
GLUD2 #2 — G2 robust z-score = 1.02

Additional results follow:
For DUXAP10 #1, how do the results read?
G2 robust z-score: -0.411

What is on record for DUXAP10 #2?
G2 robust z-score: -0.261

How did the screen score DUXAP10 #3?
G2 robust z-score: -0.816

What is on record for PRAG1 #1?
G2 robust z-score: -0.539

With PRAG1 #2, what does the deposit list?
G2 robust z-score: -1.02

What is on record for PRAG1 #3?
G2 robust z-score: 0.404

With AFG3L2 #1, what does the deposit list?
G2 robust z-score: -1.31

Which result is listed for AFG3L2 #2?
G2 robust z-score: 1.58

With AFG3L2 #3, what was measured?
G2 robust z-score: -0.471
